The list shows only some results of the screen, not a fair sample: it gathers tests that were run many times, whatever their T/C, doses with no T/C, and many T/C values between a quarter and a half above the control. Further doses and runs are listed elsewhere. T/C is the treated group as % of the vehicle group. Some entries give survivors of the animals treated and no T/C: the source files T/C as zero there, which appears to mark a toxic dose or a test without result, not a measured value. Some doses without a T/C left all or most animals alive at the check, yet need not have been tolerated: the source hardly ever lists a survival T/C far under the control, and the zero likely stands for such cases as well. Survivors were counted at the toxicity check, usually on the fifth day, unless a day is given; later deaths do not show. Schedule codes are those of the source, read here as Q, the interval in days (D) or hours (H), X, the number of doses. Some entries hold several experiments; the values are given in rising order. Some schedule codes hold Z or #, which are not explained here.

In this test the test system is L1210 leukemia ip in BDF1 mice, survival T/C. Put plainly: NCI In Vivo Anticancer Drug Screen. Data for tumor model L1210 Leukemia (intraperitoneal) in B6D2F1 (BDF1) mice. As to conditions: higher T/C = longer survival.
Where [1] appears, read: T/C endpoint: mean survival time, dose: 100.0 mg/kg/injection, schedule: Q04DX003 (ip), vehicle: saline with Tween-80.
[2] abbreviates: T/C endpoint: mean survival time, dose: 200.0 mg/kg/injection, schedule: Q04DX003 (ip), vehicle: saline with Tween-80.
The mark [3] stands for this setting: T/C endpoint: mean survival time, dose: 400.0 mg/kg/injection, schedule: Q04DX003 (ip), vehicle: saline with Tween-80.
Where [4] appears, read: T/C endpoint: mean survival time, dose: 200.0 mg/kg/injection, schedule: Q01DX009 (ip), vehicle: saline.
Setting [5] is: T/C endpoint: mean survival time, dose: 400.0 mg/kg/injection, schedule: Q01DX001 (ip), vehicle: saline.
The mark [6] stands for this setting: T/C endpoint: mean survival time, dose: 100.0 mg/kg/injection, schedule: Q04DX003 (ip), vehicle: saline.
Where [7] appears, read: T/C endpoint: mean survival time, dose: 200.0 mg/kg/injection, schedule: Q04DX003 (ip), vehicle: saline.
Where [8] appears, read: T/C endpoint: mean survival time, dose: 400.0 mg/kg/injection, schedule: Q04DX003 (ip), vehicle: saline.
Where [9] appears, read: T/C endpoint: mean survival time, dose: 400.0 mg/kg/injection, schedule: Q01DX009 (ip), vehicle: saline with Tween-80.
Where [10] appears, read: T/C endpoint: mean survival time, dose: 300.0 mg/kg/injection, schedule: Q01DX001 (ip), vehicle: carboxymethylcellulose (CMC).
Where [11] appears, read: T/C endpoint: mean survival time, dose: 400.0 mg/kg/injection, schedule: Q01DX009 (ip), vehicle: Klucel (hydroxypropylcellulose) (HPC).

Turning to `CCCCCCCCCC(=O)OCCN1CCN(CCCN2c3ccccc3Sc3ccc(C(F)(F)F)cc32)CC1`, the survivor count (T/C endpoint: mean survival time, dose: 3.12 mg/kg/injection, schedule: Q01DX009 (ip), vehicle: alcohol) is recorded as 6 of 6; the survivor count (T/C endpoint: mean survival time, dose: 6.25 mg/kg/injection, schedule: Q01DX009 (ip), vehicle: alcohol) is 6 of 6; the survivor count (T/C endpoint: mean survival time, dose: 12.5 mg/kg/injection, schedule: Q01DX009 (ip), vehicle: alcohol) was 6 of 6; the survivor count (T/C endpoint: mean survival time, dose: 25.0 mg/kg/injection, schedule: Q01DX009 (ip), vehicle: alcohol) was 5 of 6; the survivor count (T/C endpoint: mean survival time, dose: 50.0 mg/kg/injection, schedule: Q04DX003 (ip), vehicle: saline with Tween-80) is 0 of 4; the survivor count under setting [1] is listed as 0 of 4. Further, the survivor count is, setting by setting: under setting [2], 0 of 4; under setting [3], 0 of 4.
Turning to `CNNC(=O)Cc1ccc(OC)cc1`, the survivor count runs as follows: (T/C endpoint: mean survival time, dose: 100.0 mg/kg/injection, schedule: Q01DX009 (ip), vehicle: saline) 1 of 6; under setting [4], 0 of 6; under setting [5], 1 of 6.
With `CC(=O)C[P+](c1ccccc1)(c1ccccc1)c1ccccc1`, the survivor count is on record as 3 of 6 under setting [6], 0 of 6 under setting [7] and 0 of 6 under setting [8].
In the case of `c1cc[c]([Pb]([c]2ccccc2)([c]2ccccc2)[n]2cccc2)cc1`, the survivor count is listed as 5 of 6 under setting [1], 0 of 6 under setting [2] and 0 of 6 under setting [3].
Take `CO[C@H]1C[C@H](O[C@H]2CC[C@]3(C=O)[C@H]4CC[C@]5(C)[C@@H](C6=CC(=O)OC6)CC[C@]5(O)[C@@H]4CC[C@]3(O)C2)O[C@H](C)[C@H]1O[C@@H]1O[C@H](CO)[C@@H](O)[C@H](O)[C@H]1O`: the survivor count runs as follows: (T/C endpoint: mean survival time, dose: 1.0 mg/kg/injection, schedule: Q01DX001 (ip), vehicle: saline) 0 of 4; (T/C endpoint: mean survival time, dose: 2.0 mg/kg/injection, schedule: Q01DX001 (ip), vehicle: saline) 2 of 4; (T/C endpoint: mean survival time, dose: 2.0 mg/kg/injection, schedule: Q04DX003 (ip), vehicle: saline) 4 of 6; (T/C endpoint: mean survival time, dose: 4.0 mg/kg/injection, schedule: Q01DX015 (ip), vehicle: carboxymethylcellulose (CMC)) 1 of 6; (T/C endpoint: mean survival time, dose: 4.0 mg/kg/injection, schedule: Q04DX003 (ip), vehicle: saline) 0 of 6; (T/C endpoint: mean survival time, dose: 5.0 mg/kg/injection, schedule: Q01DX001 (ip), vehicle: saline) 0 of 4. Further, the survivor count by setting is: (T/C endpoint: mean survival time, dose: 10.0 mg/kg/injection, schedule: Q01DX001 (ip), vehicle: saline) 0 of 4; (T/C endpoint: mean survival time, dose: 20.0 mg/kg/injection, schedule: Q01DX001 (ip), vehicle: saline) 0 of 4; (T/C endpoint: mean survival time, dose: 40.0 mg/kg/injection, schedule: Q01DX001 (ip), vehicle: saline) 0 of 4; (T/C endpoint: median survival time, dose: 2.0 mg/kg/injection, schedule: Q01DX005 (ip), vehicle: water) 3 of 6.
With `COC1CC2C(C[CH]1[Hg][Cl])C2(Cl)Cl` (configuration not stated), the survivor count (T/C endpoint: mean survival time, dose: 25.0 mg/kg/injection, schedule: Q04DX003 (ip), vehicle: saline with Tween-80) is listed as 5 of 6.
Take `COc1ccccc1/C=N\NC(=O)CCCC(=O)N/N=C/c1ccccc1OC`: the survivor count (T/C endpoint: mean survival time, dose: 100.0 mg/kg/injection, schedule: Q01DX001 (ip), vehicle: saline) is reported as 4 of 4.
In the case of `NC(=O)c1[nH]cnc1N1CC[N+](Cc2ccccc2)=N1`, the survivor count (T/C endpoint: mean survival time, dose: 400.0 mg/kg/injection, schedule: Q01DX001 (ip), vehicle: Klucel (hydroxypropylcellulose) (HPC)) was 3 of 6.
`CC1(c2cccc3ccccc23)OCC2(CCCCC2)CO1`: the survivor count runs as follows: (T/C endpoint: mean survival time, dose: 162.5 mg/kg/injection, schedule: Q01DX009 (ip), vehicle: DMSO) 5 of 6; (T/C endpoint: mean survival time, dose: 325.0 mg/kg/injection, schedule: Q01DX009 (ip), vehicle: DMSO) 0 of 6.
With `COC(=O)c1ccc(OC(=O)Nc2cc(Cl)ccc2C)cc1`, under setting [9], the survivor count is 6 of 6.
As to `Cc1ccc([N+](=O)[O-])o1`, the survivor count under setting [3] is 4 of 6.
With `COc1cc(SSc2ccc(N)c(OC)c2)ccc1N`, the survivor count under setting [10] is 1 of 6.
Regarding `CC(C)(Cl)Cc1ccccc1`, the survivor count under setting [9] is 6 of 6.
For the compound `Cc1cccc([N+](=O)[O-])c1-c1ccccc1C(=O)O`, the survivor count under setting [11] is listed as 6 of 6.
`CCCCCCCC/C=C\CCCCCCCCOC(N)=O`: the survivor count under setting [3] is reported as 6 of 6.
Turning to `COc1ccc2c(c1)N(CCCN(C)C)c1ccccc1S2`, the survivor count runs as follows: (T/C endpoint: mean survival time, dose: 150.0 mg/kg/injection, schedule: Q04DX003 (ip), vehicle: saline) 0 of 4; (T/C endpoint: mean survival time, dose: 300.0 mg/kg/injection, schedule: Q04DX003 (ip), vehicle: saline) 0 of 4.
Consider `CCCCCCN(CCCCCC)P(=O)(N1CC1C)N1CC1C` (configuration not stated), for which the survivor count is listed as 1 of 4 (T/C endpoint: mean survival time, dose: 200.0 mg/kg/injection, schedule: Q01DX001 (ip), vehicle: saline) and 0 of 4 under setting [5].
Turning to `COc1ccccc1/C=N/N=C(N)N`, the survivor count is 3 of 6 (T/C endpoint: mean survival time, dose: 62.0 mg/kg/injection, schedule: Q01DX Z (ip), vehicle: other); 2 of 6 (T/C endpoint: mean survival time, dose: 62.5 mg/kg/injection, schedule: Q01DX Z (ip), vehicle: saline); 0 of 6 (T/C endpoint: mean survival time, dose: 125.0 mg/kg/injection, schedule: Q01DX Z (ip), vehicle: other); 4 of 6 (T/C endpoint: mean survival time, dose: 125.0 mg/kg/injection, schedule: Q01DX Z (ip), vehicle: saline); 0 of 6 (T/C endpoint: mean survival time, dose: 250.0 mg/kg/injection, schedule: Q01DX Z (ip), vehicle: saline); 0 of 6 (T/C endpoint: mean survival time, dose: 500.0 mg/kg/injection, schedule: Q01DX Z (ip), vehicle: saline).
In the case of `O=C(Nc1ccc(F)c([N+](=O)[O-])c1)Oc1cc(=O)oc2ccccc12`, the survivor count runs as follows: (T/C endpoint: mean survival time, dose: 200.0 mg/kg/injection, schedule: Q01DX009 (ip), vehicle: Klucel (hydroxypropylcellulose) (HPC)) 3 of 3; (T/C endpoint: mean survival time, dose: 300.0 mg/kg/injection, schedule: Q01DX009 (ip), vehicle: Klucel (hydroxypropylcellulose) (HPC)) 1 of 6 and 3 of 3; under setting [11], 0 of 3 and 3 of 6.
`Cc1noc(N)c1[N+](=O)[O-]`: the survivor count was 6 of 6 under setting [4] and 3 of 6 (T/C endpoint: mean survival time, dose: 400.0 mg/kg/injection, schedule: Q01DX009 (ip), vehicle: saline).
For the compound `O=C(OC(CC[P+](c1ccccc1)(c1ccccc1)c1ccccc1)(C(=O)c1ccccc1)c1ccccc1)c1ccccc1` (configuration not stated), the survivor count is listed as 2 of 6 (T/C endpoint: mean survival time, dose: 3.0 mg/kg/injection, schedule: Q01DX009 (ip), vehicle: saline with Tween-80); 3 of 6 (T/C endpoint: mean survival time, dose: 6.0 mg/kg/injection, schedule: Q01DX009 (ip), vehicle: saline with Tween-80); 0 of 6 (T/C endpoint: mean survival time, dose: 12.0 mg/kg/injection, schedule: Q01DX009 (ip), vehicle: saline with Tween-80); 0 of 6 (T/C endpoint: mean survival time, dose: 150.0 mg/kg/injection, schedule: Q01DX001 (ip), vehicle: carboxymethylcellulose (CMC)); 0 of 6 under setting [10].
With `S=C(NCc1ccccc1)Nc1ccccc1`, the survivor count under setting [3] was 0 of 3.
Turning to `O=c1cc[nH]c2c([N+](=O)[O-])cccc12`, the survivor count under setting [5] is 0 of 6.
Turning to `CC1C(C)(C)P(=O)(c2ccccc2)C1(C)C` (configuration not stated), the survivor count was 3 of 4 under setting [6], 0 of 4 under setting [7] and 0 of 4 under setting [8].
With `CC(C)OC(CCC#N)c1ccccc1` (configuration not stated), the survivor count under setting [11] was 5 of 6.
`OC1C2CCN(CC2)C1C(c1ccccc1)c1ccccc1` (configuration not stated): the survivor count is 2 of 6 under setting [2] and 0 of 6 under setting [3].
For the compound `CCSc1nc(N)c(Br)c(Sc2nc(N)nc3nc[nH]c23)n1`, the survivor count (T/C endpoint: mean survival time, dose: 200.0 mg/kg/injection, schedule: Q01DX Z (ip), vehicle: methylcellulose (MC)) is given as 6 of 6.

Values taken from PubChem BioAssay AID248 (DTP/NCI, 2004).
